Test results taken from PubChem BioAssay AID330 (DTP/NCI, 2004).
The list is a part of this screen's results and no random one: it is rich in T/C values a quarter to a half above the control, in often repeated tests (any T/C) and in doses without a T/C. Further doses and runs are listed elsewhere. T/C is the treated group as % of the vehicle group. Some entries give survivors of the animals treated and no T/C: the source holds a T/C of zero for them, seemingly a mark for toxic or unscored doses. Some survivor counts are full or nearly so, which does not show that the dose was tolerated: the source hardly ever lists a survival T/C far under the control, and the zero likely stands for such cases as well. Counts of survivors are from the toxicity check (mostly the fifth day) where no day follows; animals may have died later. Schedules are NCI's codes, taken here to give the interval after Q, in days (D) or hours (H), and the number of doses after X. Some entries hold several experiments; their values stand side by side, smallest first. For survival time, this PubChem deposit counts one and a half times the control or more as active, and values a quarter to a half above the control carry no call in these data; other NCI protocols may use other cut-offs. Some T/C values are followed by the survivors on the day toxicity was checked, most often the fifth; where none is given, no animal had died by that day.

Tested on: P388 leukemia ip, CD2F1 mice, survival T/C
Experiment: NCI In Vivo Anticancer Drug Screen. Data for tumor model P388 Leukemia (intraperitoneal) in CD2F1 (CDF1) mice
Conditions: T/C endpoint: median survival time, higher T/C = longer survival
[1] = dose: 200.0 mg/kg/injection, schedule: Q01DX005 (ip), vehicle: saline with Tween-80
[2] = dose: 240.0 mg/kg/injection, schedule: Q01DX005 (ip), vehicle: Klucel (hydroxypropylcellulose) (HPC)
[3] = dose: 200.0 mg/kg/injection, schedule: Q01DX005 (ip), vehicle: saline
[4] = dose: 100.0 mg/kg/injection, schedule: Q01DX009 (ip), vehicle: saline
[5] = dose: 200.0 mg/kg/injection, schedule: Q01DX009 (ip), vehicle: saline
[6] = dose: 100.0 mg/kg/injection, schedule: Q01DX005 (ip), vehicle: Klucel (hydroxypropylcellulose) (HPC)
[7] = dose: 50.0 mg/kg/injection, schedule: Q01DX009 (ip), vehicle: saline
[8] = dose: 200.0 mg/kg/injection, schedule: Q04DX003 (ip), vehicle: saline with Tween-80
[9] = dose: 6.0 mg/kg/injection, schedule: Q01DX005 (ip), vehicle: saline
[10] = dose: 0.78 mg/kg/injection, schedule: Q01DX009 (ip), vehicle: water
[11] = dose: 6.25 mg/kg/injection, schedule: Q04DX003 (ip), vehicle: saline
[12] = dose: 12.5 mg/kg/injection, schedule: Q04DX003 (ip), vehicle: saline
[13] = dose: 240.0 mg/kg/injection, schedule: Q01DX005 (ip), vehicle: saline with Tween-80
[14] = dose: 100.0 mg/kg/injection, schedule: Q01DX009 (ip), vehicle: saline with Tween-80

Structure (SMILES): CN(C)c1cccc(NC(=O)CC#N)c1
- survivor count [1]: 0 of 6

Structure (SMILES): COC1OC(CNC(=O)N(CCCl)N=O)C(O)C(O)C1O (stereo not drawn)
- T/C (dose: 0.78 mg/kg/injection, schedule: Q01DX009 (ip), vehicle: saline): 146 % of control

Structure (SMILES): COc1cccc(C2c3cc4c(cc3OC(C)(N3CCCC3)C2C)OCO4)c1OC (stereo not drawn)
- survivor count [2]: 5 of 6

Structure (SMILES): COc1cc(/C=C/C(C)=N/NC(N)=S)cc(OC)c1OC
- survivor count (dose: 60.0 mg/kg/injection, schedule: Q01DX005 (ip), vehicle: Klucel (hydroxypropylcellulose) (HPC)): 0 of 6
- survivor count (dose: 120.0 mg/kg/injection, schedule: Q01DX005 (ip), vehicle: Klucel (hydroxypropylcellulose) (HPC)): 0 of 6
- survivor count [2]: 0 of 6

Structure (SMILES): O=C(O)C(CO)NC(=O)C1CCCN1C(=O)OCc1ccccc1 (stereo not drawn)
- survivor count [3]: 5 of 6

Structure (SMILES): O=C(c1cc(F)ccc1Nc1ccccc1)N1CCOCC1
- survivor count [4]: 6 of 6
- survivor count [5]: 6 of 6

Structure (SMILES): Cn1c2ncccc2c(=O)c2c(O)cc3c(c21)C=CC(C)(C)O3
- survivor count [6]: 2 of 6
- survivor count (dose: 200.0 mg/kg/injection, schedule: Q01DX005 (ip), vehicle: Klucel (hydroxypropylcellulose) (HPC)): 0 of 6

Structure (SMILES): CCOC(=O)CCN(CCN(C)C)c1cc(O)c2c(c1O)C(=O)c1ccccc1C2=O
- T/C [1]: 133 % of control
- T/C (dose: 400.0 mg/kg/injection, schedule: Q01DX005 (ip), vehicle: saline with Tween-80): 136 % of control

Structure (SMILES): CC(=NC(C)C)Nc1ccccc1
- survivor count (dose: 200.0 mg/kg/injection, schedule: Q01DX009 (ip), vehicle: saline with Tween-80): 0 of 6

Structure (SMILES): Nc1ncnc2c1nnn2CC(O)CO (stereo not drawn)
- survivor count [2]: 1 of 6

Structure (SMILES): CCC[CH2][Sn]([Cl])([CH2]C)[O][Sn]([Cl])([CH2]C)[CH2]CCC (stereo not drawn)
- T/C (dose: 6.25 mg/kg/injection, schedule: Q01DX009 (ip), vehicle: saline): 137 % of control
- T/C (dose: 12.5 mg/kg/injection, schedule: Q01DX009 (ip), vehicle: saline): 135 % of control
- T/C (dose: 25.0 mg/kg/injection, schedule: Q01DX009 (ip), vehicle: saline): 135 % of control [5 of 6 alive]
- T/C [7]: 148 % of control [5 of 6 alive]
- survivor count [7]: 0 of 6
- survivor count [4]: 2 of 6
- survivor count [5]: 0 of 6

Structure (SMILES): Nc1nc(N)c2cc(CCc3ccccc3)ccc2n1
- survivor count [8]: 0 of 6

Structure (SMILES): CCCC[N+](CCCC)=c1ccc2nc3c(C)cc(N(CC)CC)cc3sc-2c1
- T/C [9]: 130 % of control
- survivor count [9]: 3 of 5
- survivor count (dose: 12.0 mg/kg/injection, schedule: Q01DX005 (ip), vehicle: saline): 2 of 5
- survivor count (dose: 12.5 mg/kg/injection, schedule: Q01DX005 (ip), vehicle: saline): 4 of 5
- survivor count (dose: 25.0 mg/kg/injection, schedule: Q01DX005 (ip), vehicle: saline): 0 of 5
- survivor count (dose: 50.0 mg/kg/injection, schedule: Q01DX005 (ip), vehicle: saline): 0 of 5
- survivor count (dose: 100.0 mg/kg/injection, schedule: Q01DX005 (ip), vehicle: saline): 0 of 5
- survivor count [3]: 0 of 5

Structure (SMILES): COc1cccc2c1C(=O)c1c(O)c3c(c(O)c1C2=O)CC(O)(C(N)=O)CC3OC1CC(N)C(O)C(C)O1 (stereo not drawn)
- T/C [10]: 131 % of control
- T/C (dose: 1.56 mg/kg/injection, schedule: Q01DX009 (ip), vehicle: water): 127 % of control
- T/C (dose: 3.13 mg/kg/injection, schedule: Q01DX009 (ip), vehicle: water): 142 % of control [5 of 6 alive]

Structure (SMILES): c1ccc(NN=Nc2ncnc3nc[nH]c23)cc1
- survivor count (dose: 100.0 mg/kg/injection, schedule: Q01DX005 (ip), vehicle: saline with Tween-80): 1 of 6
- survivor count [1]: 0 of 6

Structure (SMILES): C[CH2][Sn]1([CH2]C)[O]C2C(O)OC(CO)C(O)C2[O]1 (stereo not drawn)
- T/C [11]: 127 % of control
- survivor count [11]: 0 of 6
- T/C [12]: 140 % of control
- survivor count [12]: 0 of 6
- survivor count (dose: 25.0 mg/kg/injection, schedule: Q04DX003 (ip), vehicle: saline): 0 of 6
- survivor count (dose: 100.0 mg/kg/injection, schedule: Q04DX003 (ip), vehicle: saline): 0 of 6
- survivor count (dose: 200.0 mg/kg/injection, schedule: Q04DX003 (ip), vehicle: saline): 0 of 6
- survivor count (dose: 400.0 mg/kg/injection, schedule: Q04DX003 (ip), vehicle: saline): 0 of 6

Structure (SMILES): COc1cccc2c1C(=O)c1c(O)c3c(c(O)c1C2=O)C[C@@](O)(C(C)O)C[C@@H]3OC1CC(NCc2ccccc2)C(O)C(C)O1 (stereo partly drawn)
- T/C [10]: 131 % of control
- survivor count (dose: 12.5 mg/kg/injection, schedule: Q01DX009 (ip), vehicle: water): 6 of 6
- survivor count (dose: 25.0 mg/kg/injection, schedule: Q01DX009 (ip), vehicle: water): 6 of 6

Structure (SMILES): c1ccc(C2(c3ccc(C4(c5ccccc5)Oc5ccccc5S4)[nH]3)Oc3ccccc3S2)cc1 (stereo not drawn)
- survivor count [13]: 0 of 6

Structure (SMILES): CC[C@@H]1C[C@@H]2CN3CCc4c([nH]c5cc(Cc6ccc(OC)c(OC)c6)c(OC)cc45)C(C(=O)OC)(C2)C13
- survivor count (dose: 2.0 mg/kg/injection, schedule: Q01DX009 (ip), vehicle: Klucel (hydroxypropylcellulose) (HPC)): 6 of 6

Structure (SMILES): O=C1CN(Cc2ccc3c(c2)OCO3)NO1
- T/C [14]: 128 % of control

Structure (SMILES): CN(C)B(N(C)C)N(C)C
- survivor count [13]: 0 of 6

Structure (SMILES): C[N+]1(C)CCC(OC(=O)C(O)(c2ccccc2)C2CCCC2)C1 (stereo not drawn)
- survivor count (dose: 100.0 mg/kg/injection, schedule: Q01DX009 (ip), vehicle: Klucel (hydroxypropylcellulose) (HPC)): 0 of 6
- survivor count (dose: 200.0 mg/kg/injection, schedule: Q01DX009 (ip), vehicle: Klucel (hydroxypropylcellulose) (HPC)): 0 of 6

Structure (SMILES): Nc1ncnc2c1ccn2C1OC(CO)C(O)C1O (stereo not drawn)
- survivor count (dose: 1.0 mg/kg/injection, schedule: Q01DX009 (ip), vehicle: water): 5 of 6
- T/C (dose: 1.75 mg/kg/injection, schedule: Q01DX001 (ip), vehicle: saline): 125 % of control
- survivor count (dose: 2.0 mg/kg/injection, schedule: Q01DX009 (ip), vehicle: water): 4 of 6
- T/C (dose: 3.5 mg/kg/injection, schedule: Q01DX001 (ip), vehicle: saline): 135 % of control
- survivor count (dose: 4.0 mg/kg/injection, schedule: Q01DX009 (ip), vehicle: water): 1 of 6
- survivor count (dose: 25.0 mg/kg/injection, schedule: Q01DX005 (ip), vehicle: Klucel (hydroxypropylcellulose) (HPC)): 0 of 6
- survivor count (dose: 32.0 mg/kg/injection, schedule: Q01DX010 (sc), vehicle: saline): 6 of 6
- survivor count (dose: 50.0 mg/kg/injection, schedule: Q01DX005 (ip), vehicle: Klucel (hydroxypropylcellulose) (HPC)): 0 of 6
- survivor count (dose: 64.0 mg/kg/injection, schedule: Q01DX010 (sc), vehicle: saline): 6 of 6
- survivor count [6]: 0 of 6

Structure (SMILES): O=c1[nH]cc(S)c(=O)[nH]1
- survivor count [8]: 3 of 6

Structure (SMILES): O=[N+]([O-])c1ccc(Sc2ncnc3c2ncn3C2OC(CO)C(O)C2O)c2nonc12 (stereo not drawn)
- T/C (dose: 12.5 mg/kg/injection, schedule: Q01DX009 (ip), vehicle: suspension in saline): 127 % of control
- T/C (dose: 25.0 mg/kg/injection, schedule: Q01DX009 (ip), vehicle: suspension in saline): 125 and 137 % of control
- survivor count (dose: 100.0 mg/kg/injection, schedule: Q01DX009 (ip), vehicle: suspension in saline): 3 of 5 and 6 of 6
- survivor count (dose: 200.0 mg/kg/injection, schedule: Q01DX009 (ip), vehicle: suspension in saline): 2 of 6

Structure (SMILES): CS(=O)(=O)CCS(C)(=O)=O
- survivor count [14]: 6 of 6

Structure (SMILES): CN(C)CCN(Cc1ccc(Cl)s1)c1ccccn1
- survivor count [3]: 0 of 5

Structure (SMILES): [Se]c1nccn2cnnc12
- survivor count (dose: 100.0 mg/kg/injection, schedule: Q01DX001 (ip), vehicle: saline with Tween-80): 0 of 6
- survivor count (dose: 200.0 mg/kg/injection, schedule: Q01DX001 (ip), vehicle: saline with Tween-80): 0 of 6
- survivor count (dose: 400.0 mg/kg/injection, schedule: Q01DX001 (ip), vehicle: saline with Tween-80): 0 of 6
